Results published in patent US20140294731A1.
Residue numbers refer to the chain shown, from its start. Results are given in words; binding and its absence hold for the method and conditions named. Some binding calls cover weakened binding; strength is not graded here. Each block holds one binder with its values, some of them ahead of it.

Sequences of proteins named here, by UniProt entry; tags and fusion partners are left off. A change or cut given only in a name is not applied to a line headed by its entry.
UniProt P10636: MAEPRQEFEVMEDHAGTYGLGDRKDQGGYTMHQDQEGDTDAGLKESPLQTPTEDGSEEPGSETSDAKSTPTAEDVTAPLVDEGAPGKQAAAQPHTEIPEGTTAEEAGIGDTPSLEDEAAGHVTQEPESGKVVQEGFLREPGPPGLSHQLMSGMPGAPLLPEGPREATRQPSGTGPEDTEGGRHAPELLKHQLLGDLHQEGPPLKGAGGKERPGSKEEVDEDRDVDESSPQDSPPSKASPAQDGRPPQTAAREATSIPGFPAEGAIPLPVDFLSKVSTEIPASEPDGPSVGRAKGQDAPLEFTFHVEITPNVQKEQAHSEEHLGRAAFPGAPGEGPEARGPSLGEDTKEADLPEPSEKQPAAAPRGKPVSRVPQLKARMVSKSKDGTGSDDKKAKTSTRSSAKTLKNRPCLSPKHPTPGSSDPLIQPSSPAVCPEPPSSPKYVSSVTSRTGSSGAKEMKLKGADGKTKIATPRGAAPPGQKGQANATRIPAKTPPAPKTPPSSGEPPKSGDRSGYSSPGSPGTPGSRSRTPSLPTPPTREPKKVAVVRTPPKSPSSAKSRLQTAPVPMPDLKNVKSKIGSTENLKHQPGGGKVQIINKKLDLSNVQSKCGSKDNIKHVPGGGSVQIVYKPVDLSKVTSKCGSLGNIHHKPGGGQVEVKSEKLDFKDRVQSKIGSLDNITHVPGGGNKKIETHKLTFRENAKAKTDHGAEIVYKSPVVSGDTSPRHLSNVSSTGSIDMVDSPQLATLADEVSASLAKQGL

Key:
[1] = target: Tau tangles in brain sections from Tau transgenic mice (hTau P301L, longest isoform 441 aa) (human) (UniProt P10636); experiment: TAUPIR immunohistochemistry, biGT mouse brain sections
[2] = target: full-length Tau in denatured brain homogenates from Tau transgenic mice (hTau P301L, 441 aa) (human) (UniProt P10636); experiment: Western blot of Tau transgenic mouse brain homogenates; grade
[3] = target: Tau tangles in brain sections from Tau transgenic mice (hTau P301L, longest isoform 441 aa) (human) (UniProt P10636); experiment: TAUPIR immunohistochemistry on Tau transgenic mouse brain sections; grade (+++ Great binding)
[4] = target: full-length Tau in denatured brain homogenates from Tau transgenic mice (hTau P301L, 441 aa) (human) (UniProt P10636); experiment: Western blot of Tau transgenic mouse brain homogenates
[5] = target: Tau tangles in brain sections from Tau transgenic mice (hTau P301L, longest isoform 441 aa) (human) (UniProt P10636); experiment: TAUPIR immunohistochemistry on Tau transgenic mouse brain sections; grade (++ Very good binding)

binding [1]: binds
binding [2]: binds
binding [3]: binds
binding [4]: binds
B1: ACI-35-2A1-Ab1 (antibody, IgG2b, V domains shown)
VH: EVQLQQSGPELVKPGASVKISCKASGYTFTDYYMNWVKQSHGKSLEWIGDINPNNGGTSYNQKFKGKATLTVDKSSSTAYMELRSLTSEDSAVYYCVREGRFAYWGHGTLVTVSA
VL: DIVMTQAAPSVPVTPGESVSISCRSSKSLLHSNGNTYLYWFLQRPGQSPQLLIHRMSNLASGVPDRFSGSGSGTAFTLRISRVEAEDVGVYYCMQHLKSPYTFGGGTKLEIK

binding [1]: binds
binding [2]: binds
binding [5]: binds
binding [4]: binds
B2: ACI-35-2G5-Ab2 (antibody, IgG2b, V domains shown)
VH: B1 VH with Y27F, N61H, H107Q
VL: DIVMTQSQKFMSTSVGDRVSVTCKASQNVGTNVAWYQQKPGQSPKALIYSASYRYSGVPDRFTGSGSGTDFTLTISNVQSEDLAEYFCQQYNSYPYTFGGGTKLEIK

binding [1]: binds
binding [2]: binds
binding [5]: binds
binding [4]: binds
B3: ACI-35-2G5-Ab3 (antibody, IgG2b, V domains shown)
VH: B1 VH with Y27F, N61H, H107Q
VL: B2 VL
